Results are given in words; binding and its absence hold for the method and conditions named. In cells and extracts the contact can be indirect. Some entries that bind do so weakly or less than the wild type.
Target: Hypoxia-Inducible Factor-1α (human (endogenous in U87)) (UniProt Q16665)
Test: co-IP; lysates (RIPA lysis buffer) of U87 cells stably overexpressing TFF3, immunoprecipitated with anti-TFF3 or anti-HIF-1α antibody (Pierce Protein A/G Magnetic IP/Co-IP Kit), then immunoblot

Protein sequences, listed by entry. Tags and fused reporters are not part of them.
UniProt Q16665: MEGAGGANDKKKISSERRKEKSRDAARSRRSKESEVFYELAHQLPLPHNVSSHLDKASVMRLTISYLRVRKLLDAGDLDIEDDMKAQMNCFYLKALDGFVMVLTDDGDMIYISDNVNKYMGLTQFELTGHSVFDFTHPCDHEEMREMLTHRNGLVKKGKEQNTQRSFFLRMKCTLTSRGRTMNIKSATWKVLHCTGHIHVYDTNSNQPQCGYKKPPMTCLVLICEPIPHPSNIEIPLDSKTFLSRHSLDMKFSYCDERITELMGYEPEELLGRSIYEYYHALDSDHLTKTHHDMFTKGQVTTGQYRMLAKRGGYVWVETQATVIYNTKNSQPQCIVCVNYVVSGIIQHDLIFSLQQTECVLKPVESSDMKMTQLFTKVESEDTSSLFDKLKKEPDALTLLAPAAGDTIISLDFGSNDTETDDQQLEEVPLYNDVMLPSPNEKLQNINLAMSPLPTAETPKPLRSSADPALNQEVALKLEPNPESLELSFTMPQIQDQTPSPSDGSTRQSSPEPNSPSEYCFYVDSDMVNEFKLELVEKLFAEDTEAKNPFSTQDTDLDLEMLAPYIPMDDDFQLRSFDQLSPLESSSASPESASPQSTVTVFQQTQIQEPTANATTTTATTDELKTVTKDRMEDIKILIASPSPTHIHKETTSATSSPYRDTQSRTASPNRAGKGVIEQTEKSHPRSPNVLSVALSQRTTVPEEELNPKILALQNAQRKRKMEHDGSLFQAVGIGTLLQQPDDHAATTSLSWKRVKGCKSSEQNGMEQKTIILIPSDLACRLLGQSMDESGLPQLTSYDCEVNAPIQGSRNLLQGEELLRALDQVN

B1: Trefoil factor 3 (protein, UniProt Q07654 22-80)
chain: EEYVGLSANQCAVPAKDRVDCGYPHVTPKECNNRGCCFDSRIPGVPWCFKPLQEAECTF
Question: With B1 as the binder, how does the binding read?
Answer: The binding was “binds”.
